For at least one compound, name, drawing or mass did not settle the structure.
Target: T1, E. coli bacterial alkaline phosphatase (BAP), wild type, produced from vector pJC2431 (Escherichia coli, UniProt P00634)
T1 construct: made in house; host or cells: E. coli CC118
Experiment: Kinetic constants with pNPP, liberation of p-nitrophenolate at 410 nm
Type: biochemical
Settings: 25° C., 1M Tris-HCl, pH 8.0, preincubation with 10 mM Mg2+

By UniProt entry, the sequences of proteins in these tests, tags left out. Residues count along the entry.
UniProt P00634, 22-471: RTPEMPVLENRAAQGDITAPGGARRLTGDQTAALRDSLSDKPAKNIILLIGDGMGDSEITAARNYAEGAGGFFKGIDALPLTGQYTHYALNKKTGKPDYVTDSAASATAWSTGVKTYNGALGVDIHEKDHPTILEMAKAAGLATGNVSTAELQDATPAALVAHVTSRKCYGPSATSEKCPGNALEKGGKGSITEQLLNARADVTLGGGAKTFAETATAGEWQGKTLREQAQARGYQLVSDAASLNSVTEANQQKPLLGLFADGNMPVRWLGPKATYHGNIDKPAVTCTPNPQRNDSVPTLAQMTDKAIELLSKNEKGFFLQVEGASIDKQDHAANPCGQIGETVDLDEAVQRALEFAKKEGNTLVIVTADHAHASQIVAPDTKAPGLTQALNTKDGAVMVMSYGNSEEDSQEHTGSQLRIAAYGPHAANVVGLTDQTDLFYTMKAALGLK

O=[N+]([O-])c1ccc(OP(=O)(O)O)cc1 [pNPP, para-nitrophenyl phosphate]
Km: 23 ± 0.1 µM

From patent publication US5891699A, “Modified bacterial alkaline phosphatases and their applications” (Commissariat a l'Energie Atomique, priority 1995, dated 1999)
